Test [1] deals with T1, FLAG-hMCC (human MCC isoform 1 with an N-terminal FLAG tag) (human) (UniProt P23508).
T1 sequence: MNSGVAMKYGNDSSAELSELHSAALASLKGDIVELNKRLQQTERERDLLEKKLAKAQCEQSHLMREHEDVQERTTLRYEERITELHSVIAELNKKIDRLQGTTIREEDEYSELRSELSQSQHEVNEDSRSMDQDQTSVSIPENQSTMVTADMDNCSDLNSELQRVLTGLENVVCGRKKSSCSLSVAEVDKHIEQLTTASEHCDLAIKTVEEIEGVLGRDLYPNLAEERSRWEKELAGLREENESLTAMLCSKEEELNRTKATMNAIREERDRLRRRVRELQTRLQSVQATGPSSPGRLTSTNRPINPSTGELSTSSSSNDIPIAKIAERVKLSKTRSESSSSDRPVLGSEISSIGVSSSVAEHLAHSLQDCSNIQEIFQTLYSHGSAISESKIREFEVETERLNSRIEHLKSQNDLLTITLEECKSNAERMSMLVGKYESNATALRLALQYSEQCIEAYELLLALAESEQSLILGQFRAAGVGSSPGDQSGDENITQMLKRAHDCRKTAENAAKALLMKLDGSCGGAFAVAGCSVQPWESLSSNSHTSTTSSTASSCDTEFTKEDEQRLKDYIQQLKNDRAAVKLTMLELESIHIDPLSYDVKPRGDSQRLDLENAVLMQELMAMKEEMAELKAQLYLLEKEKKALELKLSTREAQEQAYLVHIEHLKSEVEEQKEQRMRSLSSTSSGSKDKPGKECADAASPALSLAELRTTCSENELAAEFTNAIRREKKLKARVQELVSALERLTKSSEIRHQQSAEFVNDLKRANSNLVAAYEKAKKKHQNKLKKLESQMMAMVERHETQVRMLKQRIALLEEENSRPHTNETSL
The test can be described thus: co-IP; whole cell CHAPS lysates of transduced 8226 cells; anti-FLAG-agarose beads (FLAG-hMCC) or streptavidin-sepharose beads (hMCC-SBP-6×His); 5 washes in 0.5% CHAPS, 20 mM Tris pH 7.4, 150 mM NaCl; immunoblot.

Protein sequences, listed by entry. Tags and fused reporters are not part of them.
UniProt Q14160: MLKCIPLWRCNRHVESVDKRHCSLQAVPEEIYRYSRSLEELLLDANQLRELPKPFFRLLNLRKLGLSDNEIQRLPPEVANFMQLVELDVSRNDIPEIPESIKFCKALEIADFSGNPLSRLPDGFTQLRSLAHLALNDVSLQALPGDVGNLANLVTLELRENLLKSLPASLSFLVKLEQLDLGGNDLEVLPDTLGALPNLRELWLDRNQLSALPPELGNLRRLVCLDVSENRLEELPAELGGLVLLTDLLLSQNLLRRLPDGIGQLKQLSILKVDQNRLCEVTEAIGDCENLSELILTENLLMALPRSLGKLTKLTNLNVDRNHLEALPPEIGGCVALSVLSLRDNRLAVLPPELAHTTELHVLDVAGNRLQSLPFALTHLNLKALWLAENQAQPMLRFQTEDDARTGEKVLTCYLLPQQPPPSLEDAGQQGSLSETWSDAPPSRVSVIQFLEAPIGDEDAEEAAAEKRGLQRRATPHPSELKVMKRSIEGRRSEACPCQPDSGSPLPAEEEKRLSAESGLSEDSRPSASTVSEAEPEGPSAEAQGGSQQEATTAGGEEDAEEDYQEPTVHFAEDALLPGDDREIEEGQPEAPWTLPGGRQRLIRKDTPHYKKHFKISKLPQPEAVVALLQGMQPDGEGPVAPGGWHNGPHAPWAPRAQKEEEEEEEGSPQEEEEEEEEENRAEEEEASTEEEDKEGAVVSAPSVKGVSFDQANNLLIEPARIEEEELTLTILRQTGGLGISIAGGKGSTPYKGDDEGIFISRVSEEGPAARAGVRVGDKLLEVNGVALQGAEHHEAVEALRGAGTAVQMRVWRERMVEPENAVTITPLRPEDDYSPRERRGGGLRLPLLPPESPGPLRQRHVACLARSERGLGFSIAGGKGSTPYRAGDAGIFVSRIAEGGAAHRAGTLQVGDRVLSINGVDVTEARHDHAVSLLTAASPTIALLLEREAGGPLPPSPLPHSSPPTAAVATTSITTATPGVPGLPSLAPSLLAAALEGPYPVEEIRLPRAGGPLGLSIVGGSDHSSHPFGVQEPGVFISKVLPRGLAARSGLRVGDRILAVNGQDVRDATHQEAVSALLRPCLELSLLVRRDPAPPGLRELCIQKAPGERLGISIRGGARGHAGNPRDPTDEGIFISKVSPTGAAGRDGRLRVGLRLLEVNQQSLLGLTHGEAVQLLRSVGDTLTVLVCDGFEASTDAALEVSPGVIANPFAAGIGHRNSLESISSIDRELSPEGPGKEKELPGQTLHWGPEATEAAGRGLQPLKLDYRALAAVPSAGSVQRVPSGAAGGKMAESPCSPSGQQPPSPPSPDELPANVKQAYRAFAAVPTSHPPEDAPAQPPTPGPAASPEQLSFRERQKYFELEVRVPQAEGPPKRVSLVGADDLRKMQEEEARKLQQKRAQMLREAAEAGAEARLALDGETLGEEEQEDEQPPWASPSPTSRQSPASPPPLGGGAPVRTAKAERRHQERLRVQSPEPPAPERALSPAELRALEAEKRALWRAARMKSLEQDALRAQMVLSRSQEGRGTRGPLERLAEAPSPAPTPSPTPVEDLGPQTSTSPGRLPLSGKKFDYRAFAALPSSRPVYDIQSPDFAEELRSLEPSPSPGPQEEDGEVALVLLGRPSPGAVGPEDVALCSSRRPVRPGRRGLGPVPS
UniProt P09874: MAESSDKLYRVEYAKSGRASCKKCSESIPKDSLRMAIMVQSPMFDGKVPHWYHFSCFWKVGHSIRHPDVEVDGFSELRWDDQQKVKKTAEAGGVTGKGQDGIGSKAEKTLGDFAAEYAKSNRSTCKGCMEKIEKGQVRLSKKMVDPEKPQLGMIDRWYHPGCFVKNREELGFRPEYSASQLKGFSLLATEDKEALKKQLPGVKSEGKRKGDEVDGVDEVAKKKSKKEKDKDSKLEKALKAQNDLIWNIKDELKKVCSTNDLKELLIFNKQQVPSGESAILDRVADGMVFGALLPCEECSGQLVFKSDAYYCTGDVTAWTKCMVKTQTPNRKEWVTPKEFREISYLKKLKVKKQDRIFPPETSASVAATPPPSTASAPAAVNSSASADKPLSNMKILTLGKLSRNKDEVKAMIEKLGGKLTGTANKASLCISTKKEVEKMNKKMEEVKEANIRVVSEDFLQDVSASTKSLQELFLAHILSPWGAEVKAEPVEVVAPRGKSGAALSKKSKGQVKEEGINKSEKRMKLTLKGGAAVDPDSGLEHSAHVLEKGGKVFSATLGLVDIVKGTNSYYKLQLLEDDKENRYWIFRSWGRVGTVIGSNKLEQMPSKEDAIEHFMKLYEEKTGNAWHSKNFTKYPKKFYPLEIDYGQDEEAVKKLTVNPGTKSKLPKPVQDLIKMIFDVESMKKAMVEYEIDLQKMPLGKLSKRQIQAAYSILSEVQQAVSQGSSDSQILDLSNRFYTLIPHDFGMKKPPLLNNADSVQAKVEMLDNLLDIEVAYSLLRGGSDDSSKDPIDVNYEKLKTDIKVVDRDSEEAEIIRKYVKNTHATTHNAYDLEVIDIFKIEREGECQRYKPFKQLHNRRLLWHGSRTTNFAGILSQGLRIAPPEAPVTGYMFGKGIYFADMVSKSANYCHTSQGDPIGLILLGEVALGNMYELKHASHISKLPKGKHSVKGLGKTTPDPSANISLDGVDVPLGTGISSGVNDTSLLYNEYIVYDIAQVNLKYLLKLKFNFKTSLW
UniProt P40337: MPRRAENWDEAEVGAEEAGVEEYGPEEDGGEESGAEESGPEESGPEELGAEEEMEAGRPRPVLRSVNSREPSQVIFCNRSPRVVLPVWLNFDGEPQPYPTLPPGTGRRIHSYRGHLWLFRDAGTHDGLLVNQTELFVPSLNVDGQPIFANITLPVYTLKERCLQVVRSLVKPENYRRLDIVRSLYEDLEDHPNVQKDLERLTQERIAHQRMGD
UniProt P35222: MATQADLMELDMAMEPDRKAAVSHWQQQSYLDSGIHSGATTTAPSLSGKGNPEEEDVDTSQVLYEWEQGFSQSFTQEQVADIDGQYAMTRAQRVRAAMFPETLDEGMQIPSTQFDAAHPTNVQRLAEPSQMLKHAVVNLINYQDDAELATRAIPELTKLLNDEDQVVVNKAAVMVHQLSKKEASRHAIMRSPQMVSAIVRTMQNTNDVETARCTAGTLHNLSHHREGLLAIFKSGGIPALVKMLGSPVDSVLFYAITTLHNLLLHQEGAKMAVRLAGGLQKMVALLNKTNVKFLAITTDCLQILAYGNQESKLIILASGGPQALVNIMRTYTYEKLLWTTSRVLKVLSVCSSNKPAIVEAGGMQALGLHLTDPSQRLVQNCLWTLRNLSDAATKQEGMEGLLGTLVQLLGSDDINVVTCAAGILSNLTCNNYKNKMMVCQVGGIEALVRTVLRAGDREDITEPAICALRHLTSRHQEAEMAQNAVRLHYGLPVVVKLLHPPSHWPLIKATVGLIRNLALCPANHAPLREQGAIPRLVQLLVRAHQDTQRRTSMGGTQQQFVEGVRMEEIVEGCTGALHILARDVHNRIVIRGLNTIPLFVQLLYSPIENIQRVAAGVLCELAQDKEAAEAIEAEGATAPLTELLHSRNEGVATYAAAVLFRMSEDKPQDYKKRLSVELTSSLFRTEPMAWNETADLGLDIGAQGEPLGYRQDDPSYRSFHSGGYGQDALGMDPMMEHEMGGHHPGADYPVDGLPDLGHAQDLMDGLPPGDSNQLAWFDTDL
UniProt P35580: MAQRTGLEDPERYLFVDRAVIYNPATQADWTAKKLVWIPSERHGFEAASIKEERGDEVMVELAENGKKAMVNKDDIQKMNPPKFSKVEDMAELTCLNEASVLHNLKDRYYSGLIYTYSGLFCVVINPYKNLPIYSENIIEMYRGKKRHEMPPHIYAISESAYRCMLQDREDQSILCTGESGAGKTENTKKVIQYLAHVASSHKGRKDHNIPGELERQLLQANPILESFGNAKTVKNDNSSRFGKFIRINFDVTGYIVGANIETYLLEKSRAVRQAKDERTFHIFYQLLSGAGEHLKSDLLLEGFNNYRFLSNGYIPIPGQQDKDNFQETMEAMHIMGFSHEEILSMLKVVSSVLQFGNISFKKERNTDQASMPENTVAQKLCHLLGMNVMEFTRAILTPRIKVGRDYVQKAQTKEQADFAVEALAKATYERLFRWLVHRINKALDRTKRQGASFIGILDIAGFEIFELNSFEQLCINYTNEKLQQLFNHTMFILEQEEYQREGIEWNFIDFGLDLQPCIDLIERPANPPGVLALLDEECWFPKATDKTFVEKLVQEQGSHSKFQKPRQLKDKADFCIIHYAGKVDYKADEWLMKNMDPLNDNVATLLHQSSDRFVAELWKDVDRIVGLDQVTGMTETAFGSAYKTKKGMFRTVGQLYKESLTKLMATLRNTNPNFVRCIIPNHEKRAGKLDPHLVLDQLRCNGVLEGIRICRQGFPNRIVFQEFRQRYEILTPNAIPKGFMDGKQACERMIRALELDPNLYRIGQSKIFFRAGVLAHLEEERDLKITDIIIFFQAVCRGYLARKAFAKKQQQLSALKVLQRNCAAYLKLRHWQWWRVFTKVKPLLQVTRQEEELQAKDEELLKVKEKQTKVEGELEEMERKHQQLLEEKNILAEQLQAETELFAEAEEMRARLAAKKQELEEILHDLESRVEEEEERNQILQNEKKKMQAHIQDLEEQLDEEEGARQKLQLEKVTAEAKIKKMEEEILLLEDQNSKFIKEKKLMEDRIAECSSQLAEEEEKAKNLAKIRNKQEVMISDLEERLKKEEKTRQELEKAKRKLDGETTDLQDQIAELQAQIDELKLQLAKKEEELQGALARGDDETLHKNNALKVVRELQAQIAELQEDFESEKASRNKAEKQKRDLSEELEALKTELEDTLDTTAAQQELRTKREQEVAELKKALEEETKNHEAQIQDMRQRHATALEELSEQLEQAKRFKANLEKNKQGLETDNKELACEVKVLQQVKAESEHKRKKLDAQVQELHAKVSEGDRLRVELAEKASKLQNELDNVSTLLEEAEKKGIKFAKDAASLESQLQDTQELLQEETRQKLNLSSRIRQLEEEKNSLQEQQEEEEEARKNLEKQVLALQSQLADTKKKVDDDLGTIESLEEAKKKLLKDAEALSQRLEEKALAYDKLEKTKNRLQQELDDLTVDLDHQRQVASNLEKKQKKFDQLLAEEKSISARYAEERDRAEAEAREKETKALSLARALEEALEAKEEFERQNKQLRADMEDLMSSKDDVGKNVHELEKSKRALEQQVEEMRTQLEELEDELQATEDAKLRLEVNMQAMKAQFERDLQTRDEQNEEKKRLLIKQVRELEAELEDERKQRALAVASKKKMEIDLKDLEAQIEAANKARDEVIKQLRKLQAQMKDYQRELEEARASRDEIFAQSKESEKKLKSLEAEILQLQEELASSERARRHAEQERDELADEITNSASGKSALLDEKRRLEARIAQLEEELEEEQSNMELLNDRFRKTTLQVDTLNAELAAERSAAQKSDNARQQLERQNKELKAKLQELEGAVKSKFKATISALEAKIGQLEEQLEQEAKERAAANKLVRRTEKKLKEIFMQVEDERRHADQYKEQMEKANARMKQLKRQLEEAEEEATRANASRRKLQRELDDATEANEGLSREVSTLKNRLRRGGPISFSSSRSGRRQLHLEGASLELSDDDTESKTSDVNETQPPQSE

In test [2] the target is T2, hMCC-SBP-6×His (human MCC isoform 1 with a C-terminal SBP-6×His tag) (human) (UniProt P23508).
T2 sequence: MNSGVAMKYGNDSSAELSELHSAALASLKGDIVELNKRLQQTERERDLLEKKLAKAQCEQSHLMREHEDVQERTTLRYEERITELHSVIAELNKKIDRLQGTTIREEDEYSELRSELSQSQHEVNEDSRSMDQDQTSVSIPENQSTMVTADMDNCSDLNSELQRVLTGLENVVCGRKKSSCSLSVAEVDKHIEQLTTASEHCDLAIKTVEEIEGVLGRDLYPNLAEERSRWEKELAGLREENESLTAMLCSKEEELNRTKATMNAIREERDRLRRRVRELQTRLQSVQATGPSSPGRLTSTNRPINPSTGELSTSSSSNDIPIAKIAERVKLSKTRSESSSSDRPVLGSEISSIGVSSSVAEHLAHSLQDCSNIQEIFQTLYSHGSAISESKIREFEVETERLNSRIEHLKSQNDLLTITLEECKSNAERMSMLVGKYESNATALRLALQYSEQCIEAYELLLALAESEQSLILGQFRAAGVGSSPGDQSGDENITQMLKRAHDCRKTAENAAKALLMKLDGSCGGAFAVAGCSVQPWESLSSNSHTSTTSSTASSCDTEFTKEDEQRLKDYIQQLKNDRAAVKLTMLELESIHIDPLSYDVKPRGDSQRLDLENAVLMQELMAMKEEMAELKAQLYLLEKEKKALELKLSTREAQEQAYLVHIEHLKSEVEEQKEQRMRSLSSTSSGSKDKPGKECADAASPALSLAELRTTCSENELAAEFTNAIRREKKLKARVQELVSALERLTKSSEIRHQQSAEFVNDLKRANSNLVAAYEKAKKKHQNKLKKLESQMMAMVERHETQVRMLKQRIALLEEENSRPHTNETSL
The test is described as above.

In test [3] the target is T2, hMCC-SBP-6×His (human MCC isoform 1 with a C-terminal SBP-6×His tag) (human). The test can be described thus: co-IP; CHAPS lysates of mitochondria purified from transduced 8226 cells; streptavidin-sepharose beads (hMCC-SBP-6×His); 5 washes; immunoblot. In general terms: In western blotting, separated proteins are transferred to a membrane and probed.
Test [4] concerns the target T1, FLAG-hMCC (human MCC isoform 1 with an N-terminal FLAG tag) (human). In words: co-IP; whole cell CHAPS lysates of transduced 8226 cells; anti-FLAG-agarose beads (FLAG-hMCC) or streptavidin-sepharose beads (hMCC-SBP-6×His); 5 washes in 0.5% CHAPS, 20 mM Tris pH 7.4, 150 mM NaCl; immunoblot. The source holds these as a separate data set.
The target in test [5] is T2, hMCC-SBP-6×His (human MCC isoform 1 with a C-terminal SBP-6×His tag) (human). The test is described as above. The source holds these as a separate data set.

Where two headings read alike, the source gives them in different places. Results are given in words; binding and its absence hold for the method and conditions named. In cells and extracts the contact can be indirect. Some results given as binding are weak or reduced against the parent protein; the word gives no strength. Tags and fused reporters may be left off the sequences shown.

Take scribble (from UniProt Q14160 1-1655): the binding entry in test [1] and in test [2] was “no binding” throughout.
Turning to “Poly [ADP-ribose] polymerase 1 (from UniProt P09874 1-1014)”, the binding entry in test [3] and in test [2] was “binds” each time.
Regarding VCP (from UniProt P55072 1-806), the binding entry in test [1] and in test [2] was “no binding” throughout.
For the molecule VHL (from UniProt P40337 1-213), the binding entry in test [1] and in test [2] was “no binding” each time.
With β-catenin (from UniProt P35222 1-781), the binding result in test [1] and in test [2] was “no binding” throughout.
Consider myosin IIb (from UniProt P35580 1-1976), for which the binding result in test [1] and in test [2] was “no binding” each time.

B1: DFFA (protein, UniProt O00273 1-331)
chain: MEVTGDAGVPESGEIRTLKPCLLRRNYSREQHGVAASCLEDLRSKACDILAIDKSLTPVTLVLAEDGTIVDDDDYFLCLPSNTKFVALASNEKWAYNNSDGGTAWISQESFDVDETDSGAGLKWKNVARQLKEDLSSIILLSEEDLQMLVDAPCSDLAQELRQSCATVQRLQHTLQQVLDQREEVRQSKQLLQLYLQALEKEGSLLSKQEESKAAFGEEVDAVDTGISRETSSDVALASHILTALREKQAPELSLSSQDLELVTKEDPKALAVALNWDIKKTETVQEACERELALRLQQTQSLHSLRSISASKASPPGDLQNPKRARQDPT
As for B1, the binding entry in test [4] and in test [5] was “no binding” in each case.

For the origin of these results see paper PMC4172902.
